Reference: article PMC11580471

T1: F-box and leucine-rich repeat protein 16 (Flag-FBXL16) (human) (UniProt Q8N461)
T1 sequence: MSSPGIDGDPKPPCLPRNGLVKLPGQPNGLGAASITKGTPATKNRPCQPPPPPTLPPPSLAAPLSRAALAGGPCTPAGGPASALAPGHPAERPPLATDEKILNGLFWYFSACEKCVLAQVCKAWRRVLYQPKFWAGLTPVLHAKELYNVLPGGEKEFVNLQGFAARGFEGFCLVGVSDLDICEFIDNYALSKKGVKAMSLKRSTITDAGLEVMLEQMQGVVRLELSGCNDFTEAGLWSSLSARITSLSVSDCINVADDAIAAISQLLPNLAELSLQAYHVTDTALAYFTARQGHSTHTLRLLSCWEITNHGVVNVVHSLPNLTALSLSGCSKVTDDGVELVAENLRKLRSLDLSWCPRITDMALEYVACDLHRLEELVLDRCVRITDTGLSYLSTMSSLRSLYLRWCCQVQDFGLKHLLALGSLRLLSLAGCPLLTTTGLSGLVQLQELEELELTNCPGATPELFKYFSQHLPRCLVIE


The binders below were run against T1, F-box and leucine-rich repeat protein 16 (Flag-FBXL16) (human) (assay: affinity purification with mass spectrometry; 0 to 2 µg Flag-FBXL16 plasmid transfected into HEK293 cells; precipitated with Flag magnetic beads, eluted with glycine (0.1 M, pH 2.8), neutralised with 0.5 M Tris-HCl; trypsin digestion and mass spectrometry).

binding | Binder
binds | USP17L12 (protein, UniProt C9JPN9 1-530) MEEDSLYLGGEWQFNHFSKLTSSRPDAAFAEIQRTSLPEKSPLSCETRVDLCDDLAPVARQLAPREKLPLSNRRPAAVGAGLQNMGNTCYVNASLQCLTYTPPLANYMLSREHSQTCHRHKGCMLCTMQAHITRALHNPGHVIQPSQALAAGFHRGKQEDAHEFLMFTVDAMKKACLPGHKQVDHHSKDTTLIHQIFGGYWRSQIKCLHCHGISDTFDPYLDIALDIQAAQSVQQALEQLVKPEELNGENAYHCGVCLQRAPASKMLTLLTSAKVLILVLKRFSDVTGNKIAKNVQYPECLDMQPYMSQPNTGPLVYVLYAVLVHAGWSCHNGHYFSYVKAQEGQWYKMDDAEVTASSITSVLSQQAYVLFYIQKSEWERHSESVSRGREPRALGAEDTDRRATQGELKRDHPCLQAPELDEHLVERATQESTLDHWKFLQEQNKTKPEFNVRKVEGTLPPDVLVIHQSKYKCGMKNHHPEQQSSLLKLSSTTPTHQESMNTGTLASLRGRARRSKGKNKHSKRALLVCQ
binds | USP17L11 (protein, UniProt C9JVI0 1-530) MEDDSLYLGGEWQFNHFSKLTSSRPDAAFAEIQRTSLPEKSPLSCETRVDLCDDLAPVARQLAPREKLPLSSRRPAAVGAGLQNMGNTCYVNASLQCLTYTPPLANYMLSREHSQTCHRHKGCMLCTMQAHITRALHNPGHVIQPSQALAAGFHRGKQEDAHEFLMFTVDAMKKACLPGHKQVDHHSKDTTLIHQIFGGYWRSQIKCLHCHGISDTFDPYLDIALDIQAAQSVQQALEQLVKPEELNGENAYHCGVCLQRAPASKTLTLHTSAKVLILVLKRFSDVTGNKIAKNVQYPECLDMQPYMSQTNTGPLVYVLYAVLVHAGWSCHNGHYFSYVKAQEGQWYKMDDAEVTASSITSVLSQQAYVLFYIQKSEWERHSESVSRGREPRALGAEDTDRRATQGELKRDHPCLQAPELDEHLVERATQESTLDHWKFLQEQNKTKPEFNVRKVEGTLPPDVLVIHQSKYKCGMKNHHPEQQSSLLNLSSTTPTHQESMNTGTLASLRGRARRSKGKNKHSKRALLVCQ
binds | USP17L13 (protein, UniProt C9JLJ4 1-530) MEEDSLYLGGEWQFNHFSKLTSSRLDAAFAEIQRTSLPEKSPLSCETRVDLCDDLVPEARQLAPREKLPLSSRRPAAVGAGLQNMGNTCYVNASLQCLTYTPPLANYMLSREHSQTCHRHKGCMLCTMQAHITRALHNPGHVIQPSQALAAGFHRGKQEDAHEFLMFTVDAMKKACLPGHKQVDHPSKDTTLIHQIFGGYWRSQIKCLHCHGISDTFDPYLDIALDIQAAQSVQQALEQLVKPEELNGENAYHCGVCLQRAPASKTLTLHTSAKVLILVLKRFSDVTGNKIAKNVQYPECLDMQPYMSQQNTGPLVYVLYAVLVHAGWSCHNGHYFSYVKAQEGQWYKMDDAEVTAASITSVLSQQAYVLFYIQKSEWERHSESVSRGREPRALGAEDTDRRATQGELKRDHPCLQAPELDEHLVERATQESTLDRWKFLQEQNKTKPEFNVRKVEGTLPPDVLVIHQSKYKCGMKNHHPEQQSSLLNLSSSTPTHQESMNTGTLASLRGRARRSKGKNKHSKRALLVCQ
binds | PRDX1 (protein, UniProt Q06830 1-199) MSSGNAKIGHPAPNFKATAVMPDGQFKDISLSDYKGKYVVFFFYPLDFTFVCPTEIIAFSDRAEEFKKLNCQVIGASVDSHFCHLAWVNTPKKQGGLGPMNIPLVSDPKRTIAQDYGVLKADEGISFRGLFIIDDKGILRQITVNDLPVGRSVDETLRLVQAFQFTDKHGEVCPAGWKPGSDTIKPDVQKSKEYFSKQK
binds | TXN (protein, UniProt P10599 1-105) MVKQIESKTAFQEALDAAGDKLVVVDFSATWCGPCKMIKPFFHSLSEKYSNVIFLEVDVDDCQDVASECEVKCMPTFQFFKKGQKVGEFSGANKEKLEATINELV

The next lines start with the binder.

Binder | binding
USP17L21 (protein, UniProt D6R901 1-530) MEEDSLYLGGEWQFNHFSKLTSSRPDAAFAEIQRTSLPEKSPLSCETRVDLCDDLAPVARQLAPREKLPLSNRRPAAVGAGLQNMGNTCYVNASLQCLTYTPPLANYMLSREHSQTCHRHKGCMLCTMQAHITRALHNPGHVIQPSQALAAGFHRGKQEDAHEFLMFTVDAMKKACLPGHKQVDHHSKDTTLIHQIFGGYWRSQIKCLHCHGISDTFDPYLDIALDIQAAQSVQQALEQLVKPEELNGENAYHCGVCLQRAPASKMLTLLTSAKVLILVLKRFSDVTGNKIAKNVQYPECLDMQPYMSQPNTGPLVYVLYAVLVHAGWSCHNGHYFSYVKAQEGQWYKMDDAEVTASSITSVLSQQAYVLFYIQKSEWERHSESVSRGREPRALGAEDTDRRATQGELKRDHPCLQAPELDEHLVERATQESTLDHWKFLQEQNKTKPEFNVRKVEGTLPPDVLVIHQSKYKCGMKNHHPEQQSSLLNLSSSTPTHQESMNTGTLASLRGRARRSKGKNKHSKRALLVCQ | binds
USP17L17 (protein, UniProt D6RBQ6 1-530) MEDDSLYLGGEWQFNHFSKLTSSRPDAAFAEIQRTSLPEKSPLSCETRVDLCDDLAPVARQLAPREKLPLSSRRPAAVGAGLQNMGNTCYVNASLQCLTYTPPLANYMLSREHSQTCHRHKGCMLCTMQAHITRALHNPGHVIQPSQALAAGFHRGKQEDAHEFLMFTVDAMKKACLPGHKQVDHHSKDTTLIHQIFGGYWRSQIKCLHCHGISDTFDPYLDIALDIQAAQSVQQALEQLVKPEELNGENAYHCGVCLQRAPASKTLTLHTSAKVLILVLKRFSDVTGNKIAKNVQYPECLDMQPYMSQQNTGPLVYVLYAVLVHAGWSCHNGHYFSYVKAQEGQWYKMDDAEVTAASITSVLSQQAYVLFYIQKSEWERHSESVSRGREPRALGAEDTDRRATQGELKRDHPCLQAPELDEHLVERATQESTLDHWKFLQEQNKTKPEFNVRKVEGTLPPDVLVIHQSKYKCGMKNHHPEQQSSLLNLSSSTPTHQESMNTGTLASLRGRARRSKGKNKHSKRALLVCQ | binds
USP17L22 (protein, UniProt D6RA61 1-530) MEDDSLYLGGEWQFNHFSKLTSSRPDAAFAEIQRTSLPEKSPLSCETRVDLCDDLAPVARQLAPREKLPLSSRRPAAVGAGLQNMGNTCYVNASLQCLTYTPPLANYMLSREHSQTCHRHKGCMLCTMQAHITRALHNPGHVIQPSQALAAGFHRGKQEDAHEFLMFTVDAMKKACLPGHKQVDHHSKDTTLIHQIFGGYWRSQIKCLHCHGISDTFDPYLDIALDIQAAQSVQQALEQLVKPEELNGENAYHCGVCLQRAPASKTLTLHTSAKVLILVLKRFSDVTGNKIAKNVQYPECLDMQPYMSQQNTGPLVYVLYAVLVHAGWSCHNGHYFSYVKAQEGQWYKMDDAEVTASSITSVLSQQAYVLFYIQKSEWERHSESVSRGREPRALGAEDTDRRATQGELKRDHPCLQAPELDEHLVERATQESTLDHWKFLQEQNKTKPEFNVRKVEGTLPPDVLVIHQSKYKCGMKNHHPEQQSSLLKLSSTTPTHQESMNTGTLASLRGRARRSKGKNKHSKRALLVCQ | binds
USP17L10 (protein, UniProt C9JJH3 1-530) MEDDSLYLGGEWQFNHFSKLTSSRPDAAFAEIQRTSLPEKSPLSCETRVDLCDDLAPVARQLAPREKPPLSSRRPAAVGAGLQNMGNTCYVNASLQCLTYKPPLANYMLFREHSQTCHRHKGCMLCTMQAHITRALHIPGHVIQPSQALAAGFHRGKQEDAHEFLMFTVDAMRKACLPGHKQVDRHSKDTTLIHQIFGGYWRSQIKCLHCHGISDTFDPYLDIALDIQAAQSVQQALEQLVKPEELNGENAYHCGVCLQRAPASKTLTLHNSAKVLILVLKRFPDVTGNKIAKNVQYPECLDMQPYMSQQNTGPLVYVLYAVLVHAGWSCHNGHYSSYVKAQEGQWYKMDDAEVTASSITSVLSQQAYVLFYIQKSEWERHSESVSRGREPRALGVEDTDRRATQGELKRDHPCLQAPELDEHLVERATQESTLDHWKFLQEQNKTKPEFNVRRVEGTVPPDVLVIHQSKYKCRMKNHHPEQQSSLLNLSSTTPTDQESMNTGTLASLRGRTRRSKGKNKHSKRALLVCQ | binds

No constants are given. Whether binding was seen depends on the method and setting. Binding seen in cells or lysates may run through a third protein. A yes stands for co-enrichment or nearness to the bait. Other partners may have been found. Sequences can lack the tags named with a protein.
